No constants are given. Whether binding was seen depends on the method and setting. Binding seen in cells or lysates may run through a third protein. Some binding calls cover weakened binding; strength is not graded here.
What was measured:
[1] = target: SMYD2 (endogenous) (human (endogenous in HCT116 and SNU475)) (UniProt Q9NRG4); assay: co-IP; cell extracts of HCT116 and SNU475; immunoprecipitation with anti-SMYD2 antibody or IgG, blot with anti-β-catenin; reciprocal immunoprecipitation with anti-β-catenin or control IgG, blot with anti-SMYD2
[2] = target: FLAG-K133A-substituted β-catenin (human) (UniProt P35222); assay: co-IP; 293T cells co-transfected with FLAG-WT- or FLAG-K133A-β-catenin and HA-SMYD2, 48 h; 300 μg cell extract with anti-FLAG M2 affinity gel; beads washed 3 times in TBS pH 7.6; blots with anti-FOXM1, anti-BCL9, anti-α-catenin, anti-HA

Chains of the proteins cited; added tags and fusions are not shown. Lines headed by an entry give the natural chain unless they say otherwise; changes in a name come on top.
UniProt Q9NRG4: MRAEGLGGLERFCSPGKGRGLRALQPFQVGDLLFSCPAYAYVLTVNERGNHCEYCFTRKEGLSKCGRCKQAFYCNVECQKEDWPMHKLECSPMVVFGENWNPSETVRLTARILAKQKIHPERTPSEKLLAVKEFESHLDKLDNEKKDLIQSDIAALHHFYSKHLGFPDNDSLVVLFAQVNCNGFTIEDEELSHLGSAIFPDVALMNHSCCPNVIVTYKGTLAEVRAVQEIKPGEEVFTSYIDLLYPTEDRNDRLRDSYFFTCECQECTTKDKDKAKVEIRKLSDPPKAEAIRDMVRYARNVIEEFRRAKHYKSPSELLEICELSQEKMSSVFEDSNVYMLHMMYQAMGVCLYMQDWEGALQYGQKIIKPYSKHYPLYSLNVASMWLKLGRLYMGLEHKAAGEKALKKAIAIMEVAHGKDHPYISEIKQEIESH
UniProt P35222: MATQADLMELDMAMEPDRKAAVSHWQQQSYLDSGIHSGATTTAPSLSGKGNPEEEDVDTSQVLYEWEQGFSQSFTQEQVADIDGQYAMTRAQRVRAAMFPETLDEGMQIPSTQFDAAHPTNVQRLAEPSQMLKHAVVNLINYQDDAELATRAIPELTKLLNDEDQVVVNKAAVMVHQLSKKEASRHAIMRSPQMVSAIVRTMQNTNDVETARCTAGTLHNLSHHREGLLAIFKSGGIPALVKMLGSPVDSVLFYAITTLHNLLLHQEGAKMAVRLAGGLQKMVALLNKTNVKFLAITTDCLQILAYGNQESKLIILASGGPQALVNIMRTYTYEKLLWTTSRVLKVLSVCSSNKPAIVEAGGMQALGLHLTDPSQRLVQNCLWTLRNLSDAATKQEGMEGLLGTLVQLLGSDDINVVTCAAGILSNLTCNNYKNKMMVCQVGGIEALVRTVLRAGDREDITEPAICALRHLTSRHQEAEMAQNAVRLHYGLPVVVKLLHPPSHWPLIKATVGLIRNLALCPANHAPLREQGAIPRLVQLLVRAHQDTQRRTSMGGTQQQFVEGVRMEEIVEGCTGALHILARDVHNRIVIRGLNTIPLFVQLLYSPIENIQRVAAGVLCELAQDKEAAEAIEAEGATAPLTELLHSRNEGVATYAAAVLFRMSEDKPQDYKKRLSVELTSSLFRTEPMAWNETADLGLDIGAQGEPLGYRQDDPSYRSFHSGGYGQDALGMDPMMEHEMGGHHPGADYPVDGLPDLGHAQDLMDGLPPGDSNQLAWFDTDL

Row | binding [1] | binding [2] | Substance
1 | binds |  | β-catenin (endogenous, SNU475) (from UniProt P35222 1-781)
2 |  | binds | HA-SMYD2 (from UniProt Q9NRG4 1-433) (enzyme)

Source: article PMC5593527
